From the supplement of paper PMC3682954
Values joined by “and” are separate entries in the source; they are usually repeats but may differ in a detail not shown here. Equal values may be shown once. Where a name gives a salt, the structure may show the parent alone. ± gives the standard deviation of the averaged measurements. This is one part of the list. Most values come without repeats; read them as rough.

Tested on: RAW 264.7
Assay: cell viability (MTT) relative to vehicle control; higher = more viable cells
Conditions: stimulus: HMGB1 5 ug/ml, 18 h
[1] = compound concentration: 1 ug/ml

## CC[C@@H](C)C(=O)O[C@H]1[C@H](O)[C@H]2[C@@H](CN3C[C@@H](C)CC[C@H]3[C@@]2(C)O)[C@@H]2C[C@]34O[C@]5(O)[C@@H](OC(=O)[C@](C)(O)[C@@H](C)O)CC[C@@]3(C)[C@@H]5[C@@H](OC(C)=O)[C@@H](OC(C)=O)[C@H]4[C@@]21O (stereo in doubt)
Compound concentration: 3 uM
  cell viability: 96.9%

## C[N+](C)(C)CC#CCOC(=O)Nc1cccc(Cl)c1
Compound concentration: 3 uM
  cell viability: 101%

## CN1C[C@@H](NS(=O)(=O)N(C)C)C[C@@H]2c3cccc4c3c(cn4C)C[C@H]21 [Mesulergine]
Compound concentration: 3 uM
  cell viability: 106%

## CCC(C)C1O[C@]2(C=C[C@@H]1C)C[C@@H]1CC(C/C=C(\C)[C@@H](OC3C[C@H](OC)[C@@H](OC4C[C@H](OC)[C@@H](O)[C@H](C)O4)[C@H](C)O3)[C@@H](C)/C=C/C=C3\COC4[C@H](O)C(C)=CC(C(=O)O1)[C@]34O)O2 (stereo partly drawn) [Avermectin B1a]
Compound concentration: 3 uM
  cell viability: 96.7%

## Oc1cccc2cccnc12
Compound concentration: 3 uM
  cell viability: 112%

## COc1ccc(CCN)cc1OC [Homoveratrylamine]
Compound concentration: 3 uM
  cell viability: 96.4%

## CC1=C(O)C(=O)C=C2C1=CC=C1[C@@]2(C)CC[C@@]2(C)[C@@H]3C[C@](C)(C(=O)O)CC[C@]3(C)CC[C@]12C
Compound concentration: 3 uM
  cell viability: 3.56%

## OC1CCCCC1N1CCC(c2ccccc2)CC1 (racemic) [(±)-Vesamicol hydrochloride]
Compound concentration: 3 uM
  cell viability: 111%

## CCCN1C[C@H](CSC)C[C@@H]2c3cccc4[nH]cc(c34)C[C@H]21 [Pergolide methanesulfonate]
Compound concentration: 3 uM
  cell viability: 106%

## CCCN1C[C@H](CSC)C[C@@H]2c3cccc4[nH]cc(c34)C[C@H]21
Compound concentration: 3 uM
  cell viability: 100% and 98.6%

## CCCN1C[C@H](CSC)C[C@@H]2c3cccc4[nH]cc(c34)C[C@H]21 [Pergolide mesylate]
[1]
  cell viability: 92%
Compound concentration: 3 uM
  cell viability: 96.1%

## CCCN1C[C@H](CSC)C[C@@H]2c3cccc4[nH]cc(c34)C[C@H]21 [Pergolide]
Compound concentration: 3 uM
  cell viability: 117%

## CCCCc1ccc(C(=O)O)nc1 [Fusaric acid]
Compound concentration: 3 uM
  cell viability: 109%

## CCCCc1ccc(C(=O)O)nc1 [Fusaric acid ; 5-butylpicolinic acid]
[1]
  cell viability: 103%

## CN1CC[C@]23CCCC[C@H]2[C@H]1Cc1ccc(O)cc13
Compound concentration: 3 uM
  cell viability: 101%

## N.N.[Cl][Pt][Cl] [Cisplatin]
Compound concentration: 3 uM
  cell viability: 98.1%

## N.N.[Cl][Pt][Cl]
Compound concentration: 3 uM
  cell viability: 106 ± 8.1%

## C=C(C)[C@@H]1[C@H]2OC(=O)[C@@H]1[C@]1(O)C[C@H]3O[C@]34C(=O)O[C@H]2[C@]14C.CC(C)(O)[C@@H]1[C@H]2OC(=O)[C@@H]1[C@]1(O)C[C@H]3O[C@]34C(=O)O[C@H]2[C@]14C [Picrotin - Picrotoxinin]
Compound concentration: 3 uM
  cell viability: 96.2%

## Oc1ccc2c3c1O[C@H]1c4[nH]c5c(c4C[C@@]4(O)[C@@H](C2)N(CC2CC2)CC[C@]314)C[C@@]1(O)[C@H]2Cc3ccc(O)c4c3[C@@]1(CCN2CC1CC1)[C@H]5O4 [nor-Binaltorphimine dihydrochloride]
Compound concentration: 3 uM
  cell viability: 115%

## COc1ccc2[nH]cc(CCN)c2c1 [O-Methylserotonin hydrochloride]
Compound concentration: 3 uM
  cell viability: 101%

## COc1ccc2[nH]cc(CCN)c2c1 [5-Methoxytryptamine]
Compound concentration: 3 uM
  cell viability: 100%

## C/C=C1/C[N@+]2(C)CC[C@]34C(=C(C=O)[C@H]1C[C@@H]32)Nc1ccccc14
[1]
  cell viability: 104%

## Cc1ncc(CNC(=O)N(CCCl)N=O)c(N)n1 [Nimustine hydrochloride]
Compound concentration: 3 uM
  cell viability: 109%

## Cc1ncc(CNC(=O)N(CCCl)N=O)c(N)n1
Compound concentration: 3 uM
  cell viability: 117 ± 15%

## COC(=O)[C@]1(C)CC[C@]2(C)CC[C@]3(C)C4=CC=C5C(=CC(=O)C(O)=C5C)[C@]4(C)CC[C@@]3(C)[C@@H]2C1
Compound concentration: 3 uM
  cell viability: 10.9%

## CC12CCC3C(CCC4=C(O)C(=O)CCC43C)C1CCC2=O (stereo not drawn) [4-Androsten-4-ol-3,17-dione]
Compound concentration: 3 uM
  cell viability: 103%

## Cc1cc(O)ccc1Cl
Compound concentration: 3 uM
  cell viability: 108%

## C=C(C)[C@H]1CN[C@H](C(=O)O)[C@H]1CC(=O)O
Compound concentration: 3 uM
  cell viability: 105%

## C=C(C)[C@H]1CN[C@H](C(=O)O)[C@H]1CC(=O)O [Kainic acid]
Compound concentration: 3 uM
  cell viability: 104%

## C[C@@H]1CC[C@@]2(OC1)O[C@H]1[C@@H](O)[C@H]3[C@@H]4CC[C@H]5C[C@@H](O[C@@H]6O[C@H](CO)[C@H](O[C@@H]7O[C@H](CO)[C@@H](O)[C@H](O[C@@H]8OC[C@@H](O)[C@H](O)[C@H]8O)[C@H]7O[C@@H]7O[C@H](CO)[C@H](O)[C@H](O[C@@H]8O[C@H](CO)[C@@H](O)[C@H](O)[C@H]8O)[C@H]7O)[C@H](O)[C@H]6O)[C@H](O)C[C@]5(C)[C@H]4CC[C@]3(C)[C@H]1[C@@H]2C [Digitonin]
[1]
  cell viability: 106%

## COc1ccc2c(c1)c(CCN1CCOCC1)c(C)n2C(=O)c1cccc(Cl)c1Cl
Compound concentration: 3 uM
  cell viability: 118%

## COc1ccc(CN2CCNCC2)c(OC)c1OC
Compound concentration: 3 uM
  cell viability: 108%

## COc1ccc(CN2CCNCC2)c(OC)c1OC [Trimetazidine dihydrochloride]
Compound concentration: 3 uM
  cell viability: 91.8%

## c1ccc2c(N3CCNCC3)cccc2c1 [1-(1-Naphthyl)piperazine hydrochloride]
Compound concentration: 3 uM
  cell viability: 119%

## CC[C@H]1CN2CC[C@H]1C[C@@H]2[C@@H](O)c1ccnc2ccc(OC)cc12
Compound concentration: 3 uM
  cell viability: 109%

## CC[C@H]1CN2CC[C@H]1C[C@@H]2[C@@H](O)c1ccnc2ccc(OC)cc12 [Hydroquinidine]
[1]
  cell viability: 83.8%

## CCCN(CCC)CCc1c[nH]c2ccc(C(N)=O)cc12 [N,N-Dipropyl-5-carboxamidotryptamine maleate]
Compound concentration: 3 uM
  cell viability: 99.6%

## O=C(N[C@H]1CN2CCC1CC2)c1ccc(Cl)cc1
Compound concentration: 3 uM
  cell viability: 100%

## O=[N+]([O-])c1ccc2nc(N3CCNCC3)ccc2c1 [Quipazine, 6-nitro-, maleate]
Compound concentration: 3 uM
  cell viability: 104%

## C=C[C@H]1CN2CC[C@H]1C[C@H]2[C@H](OC(=O)OCC)c1ccnc2ccc(OC)cc12
Compound concentration: 3 uM
  cell viability: 115%

## C[C@]12CC[C@H]3[C@@H](CCC4=CC(=O)CC[C@@H]43)[C@@H]1CC[C@@H]2O [Nandrolone]
Compound concentration: 3 uM
  cell viability: 83.3%

## C[C@]12CC[C@H]3[C@@H](CCC4=CC(=O)CC[C@@H]43)[C@@H]1CC[C@@H]2O [19-Nortestosterone]
Compound concentration: 3 uM
  cell viability: 103%

## C=CCN1C[C@H](C)N([C@H](c2ccc(C(=O)N(CC)CC)cc2)c2cccc(OC)c2)C[C@H]1C
Compound concentration: 3 uM
  cell viability: 119%

## O=[N+]([O-])O[C@@H]1CO[C@H]2[C@@H]1OC[C@@H]2O
Compound concentration: 3 uM
  cell viability: 98.3%

## O=[N+]([O-])O[C@@H]1CO[C@H]2[C@@H]1OC[C@@H]2O [Isosorbide mononitrate]
Compound concentration: 3 uM
  cell viability: 95.5%

## CC1=CC(=O)c2c(O)cccc2C1=O [Plumbagin]
[1]
  cell viability: 91%

## CC(Cc1ccc(OCC(=O)O)cc1)NCC(O)c1cccc(Cl)c1 (stereo not drawn)
Compound concentration: 3 uM
  cell viability: 87.2%

## OC1CCCCC1N1CCC(c2ccccc2)CC1 (stereo not drawn)
Compound concentration: 3 uM
  cell viability: 103%

## NC(=O)c1ccc(N)nc1
Compound concentration: 3 uM
  cell viability: 98.4%

## N[C@@H](Cc1ccc(N(CCCl)CCCl)cc1)C(=O)O
Compound concentration: 3 uM
  cell viability: 107 ± 8.5%

## N[C@@H](Cc1ccc(N(CCCl)CCCl)cc1)C(=O)O [Melphalan]
Compound concentration: 3 uM
  cell viability: 101 ± 1.6%

## CC(C)=CCOc1c2occc2cc2ccc(=O)oc12 [Imperatorin]
Compound concentration: 3 uM
  cell viability: 94.8%

## CC[C@@]1(O)C[C@H](O[C@H]2C[C@H](N(C)C)[C@H](O)[C@H](C)O2)c2c(cc3c(c2O)C(=O)c2c(O)cccc2C3=O)[C@H]1C(=O)OC
Compound concentration: 3 uM
  cell viability: 2.09%

## CC(C)N(CCC(C(N)=O)(c1ccccc1)c1ccccn1)C(C)C (stereo not drawn)
Compound concentration: 3 uM
  cell viability: 96.2%

## CC(C)N(CCC(C(N)=O)(c1ccccc1)c1ccccn1)C(C)C (stereo not drawn) [Disopyramide]
Compound concentration: 3 uM
  cell viability: 99.3 ± 6.1%

## CC(C)N(CCC(C(N)=O)(c1ccccc1)c1ccccn1)C(C)C (stereo not drawn) [Disopyramide phosphate]
Compound concentration: 3 uM
  cell viability: 95.8%

## C[C@H](N)[C@H](O)c1ccc(O)c(O)c1
Compound concentration: 3 uM
  cell viability: 101%

## C[C@H](N)[C@H](O)c1ccc(O)c(O)c1 [Levonordefrin]
Compound concentration: 3 uM
  cell viability: 116%

## N=C(N)NN [Aminoguanidine hemisulfate]
Compound concentration: 3 uM
  cell viability: 101%

## N=C(N)NN [Aminoguanidine hydrochloride]
Compound concentration: 3 uM
  cell viability: 104%

## CN1[C@@H]2CC[C@H]1C[C@@H](OC(=O)[C@H](CO)c1ccccc1)C2 [L-Hyoscyamine]
Compound concentration: 3 uM
  cell viability: 100%

## CN1[C@@H]2CC[C@H]1C[C@@H](OC(=O)[C@H](CO)c1ccccc1)C2
Compound concentration: 3 uM
  cell viability: 104%

## CN1[C@@H]2CC[C@H]1C[C@@H](OC(=O)[C@H](CO)c1ccccc1)C2 [Hyoscyamine (L)]
Compound concentration: 3 uM
  cell viability: 117%

## Cc1ccc(-c2nc3ccc(C)cn3c2CC(=O)N(C)C)cc1
Compound concentration: 3 uM
  cell viability: 93.7%

## O.O.O=c1cccc2n1CC1CC2CN(CCO)C1.[Cl][Cu][Cl] (stereo not drawn)
[1]
  cell viability: 99%

## C[C@H](N)CN1CCc2ccc(Br)cc21 [VER-3323 hemifumarate salt]
Compound concentration: 3 uM
  cell viability: 102%

## C[C@H]1O[C@H](O[C@H]2[C@H](O)[C@@H](O)[C@@H](O)[C@H](O)[C@@H]2O)[C@@H](N)C[C@@H]1NC(=N)C(=O)O [Kasugamycin]
Compound concentration: 3 uM
  cell viability: 107%

## O=C1CN=C(c2ccccc2Cl)c2cc([N+](=O)[O-])ccc2N1
Compound concentration: 3 uM
  cell viability: 99.2%

## O=[N+]([O-])c1cc(O)c(O)c([N+](=O)[O-])c1 [3,5-Dinitrocatechol]
Compound concentration: 3 uM
  cell viability: 92.6%

## CN[C@@H]1C[C@@H](c2ccc(Cl)c(Cl)c2)c2ccccc21 [Indatraline hydrochloride]
Compound concentration: 3 uM
  cell viability: 87.8%

## COc1ccc2c(c1)[C@]13CCCC[C@@H]1[C@H](C2)N(C)CC3 [Dextromethorphan]
Compound concentration: 3 uM
  cell viability: 103%

## COc1ccc2c(c1)[C@]13CCCC[C@@H]1[C@H](C2)N(C)CC3
Compound concentration: 3 uM
  cell viability: 97.4%

## COc1ccc2c(c1)[C@]13CCCC[C@@H]1[C@H](C2)N(C)CC3 [d-3-Methoxy-N-methylmorphinan hydrobromide]
Compound concentration: 3 uM
  cell viability: 97%

## COc1ccc2c(c1)[C@]13CCCC[C@@H]1[C@H](C2)N(C)CC3 [Dextromethorphan hydrobromide monohydrate]
Compound concentration: 3 uM
  cell viability: 103 ± 11%

## Cc1ccc(S(=O)(=O)N2CC3CC(C2)c2cccc(=O)n2C3)cc1 (stereo not drawn)
[1]
  cell viability: 110%

## CC1=NCCc2c1[nH]c1cc(O)ccc21 [Harmalol hydrochloride dihydrate]
Compound concentration: 3 uM
  cell viability: 113%

## CC1=NCCc2c1[nH]c1cc(O)ccc21 [Harmalol]
[1]
  cell viability: 111%
